Measured values from PubChem BioAssay AID1487 (National Center for Advancing Translational Sciences (NCATS), 2009).
This is one part of the list. Further columns of the screen follow, without active or inactive calls. The list favours compounds with an active or inconclusive main result. The note in brackets gives the kind of curve behind each potency; many fits are weak.

Assay: qHTS Assay for Modulators of Lamin A Splicing
Details: HeLa LMNA splicing GFP/RFP minigene ratio, 48 h
How it was run: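 Read-out is the ratio of GFP to DsRed2 object intensity, acquired by 488 nm laser-scanning cytometry on HeLa lamin A-EGFP minigene reporter cells. Compound incubation 48 hrs at 37 °C in Opti-MEM with 2% FBS; DMSO 0.5% final.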

[1] = measured here: RFP viability control channel
[2] = measured here: GFP splicing reporter channel

## Cc1cc(C)cc(NC(=O)c2cc(S(=O)(=O)N3CCc4ccccc43)cn2C)c1
[1]
  AC50: 22.4 µM [falling, partial curve, poor fit]

## CCOC(=O)N1CCC(c2cc(=O)n3[nH]c(C)c(-c4ccc(F)cc4)c3n2)CC1
[1]
  AC50: 35.5 µM [rising, single point]

## CC(C)CC(=O)N/C(N)=N/c1nc2ccccc2s1
[1]
  AC50: 31.6 µM [rising, single point]

## Cc1ccc(S(=O)(=O)N2CCOCC2)cc1C(=O)OCC(=O)Nc1ccc2c(c1)OCO2
[2]
  AC50: 3.98 µM [rising, full curve]
[1]
  AC50: 3.16 µM [rising, full curve, poor fit]

## CC1CCN(C(=O)CSc2nc3ccccc3nc2Cc2ccccc2)CC1
[2]
  AC50: 1 µM [rising, full curve, poor fit]

## COC(=O)c1ccc(NC(=O)Cn2nc(C)cc2C)cc1
[1]
  AC50: 14.1 µM [rising, single point]

## CSc1nc2sc3c(c2c(=O)[nH]1)CCCC3
[2]
  AC50: 7.94 µM [rising, partial curve]

## CCOc1ccc(CN2C(=O)c3ccccc3C2C(=O)NCCc2ccc(OC)c(OC)c2)cc1 (stereo not given)
[2]
  AC50: 10 µM [falling, partial curve, poor fit]

## O=C(NC1CCCCCC1)C1CCN(S(=O)(=O)c2cnc[nH]2)CC1
[1]
  AC50: 39.8 µM [falling, partial curve, poor fit]

## Nc1ccc(C23CC4CC(CC(CO)(C4)C2)C3)cc1
[2]
  AC50: 14.1 µM [rising, single point]
[1]
  AC50: 15.8 µM [rising, single point]

## CCCCOc1ccc(C(=O)Nc2ccc(C)cc2[N+](=O)[O-])cc1
[1]
  AC50: 11.2 µM [rising, partial curve]

## CCOc1ccc(CNS(=O)(=O)c2ccc3c(c2)CCCN3C(C)=O)cc1
[2]
  AC50: 0.02 µM [falling, full curve, poor fit]

## O=C(CCCc1c[nH]c2ccccc12)Nc1ccc2ccccc2c1
[2]
  AC50: 14.1 µM [rising, partial curve]
[1]
  AC50: 17.8 µM [rising, single point]

## Cc1ccc(NS(=O)(=O)c2cccc(C(=O)NN3CCOCC3)c2)cc1
[1]
  AC50: 1.26 µM [falling, full curve, poor fit]

## O=C(NC(=S)N1CCCc2ccccc21)c1ccc([N+](=O)[O-])cc1
[1]
  AC50: 35.5 µM [rising, single point]

## CCNC(=S)N/N=C/c1ccc(-c2ccccc2)o1
[1]
  AC50: 0.316 µM [falling, full curve, poor fit]

## COc1ccc(-n2cc(C(=O)Oc3cc(C)cc(C)c3)c3ccccc3c2=O)cc1
[1]
  AC50: 12.6 µM [rising, partial curve]

## CCOC(=O)c1[nH]c(C)c(/C(O)=C2\C(=O)C(=O)N(CCN3CCOCC3)C2c2cccs2)c1C (stereo not given)
[1]
  AC50: 35.5 µM [falling, single point]

## COc1ccc(/C=N/NS(=O)(=O)c2ccc(C)cc2)cc1OC(=O)c1ccc(C)cc1
[1]
  AC50: 31.6 µM [rising, single point]

## Cc1ccc(NC(=O)CN(C)C(=O)Cn2ncc(Cl)c(Cl)c2=O)cc1
[1]
  AC50: 35.5 µM [rising, single point]

## COc1ccccc1CN1CCN(Cc2nc(Cc3ccccc3)no2)CC1
[2]
  AC50: 8.91 µM [falling, partial curve, poor fit]
[1]
  AC50: 0.00282 µM [falling, full curve, poor fit]

## Cc1cc2ncn(-c3ncnc4sc5c(c34)CCCC5)c2cc1C
[1]
  AC50: 20 µM [rising, single point]

## COc1ccc(NS(=O)(=O)c2ccc3[nH]c4c(c3c2)CCCCC4)cc1
[2]
  AC50: 35.5 µM [falling, partial curve, poor fit]

## CC1(C)Cc2nc3sc4c(=O)n(CC(=O)NCc5ccccc5)cnc4c3cc2CO1
[2]
  AC50: 31.6 µM [falling, single point]
[1]
  AC50: 12.6 µM [falling, partial curve, poor fit]

## COc1ccc(Oc2ncc(CN3CCN(c4ccccc4)CC3)s2)cc1
[1]
  AC50: 35.5 µM [rising, single point]

## CC(=O)Nc1c(C)nn(-c2ccccc2)c1N1CCC(C(=O)Nc2ccccc2F)CC1
[1]
  AC50: 35.5 µM [rising, partial curve, poor fit]

## CCCCN1C[C@H](O)[C@@H](O)[C@H](O)[C@H]1CO
[1]
  AC50: 7.94 µM [falling, partial curve, poor fit]

## O=C(c1ccc(Cl)c(Cl)c1)N1CCC(=O)N(C(COCc2ccc(Cl)cc2)Cc2ccccc2)CC1 (stereo not given)
[2]
  AC50: 14.1 µM [rising, single point]
[1]
  AC50: 31.6 µM [rising, single point]

## Cc1ccc(-c2csc(NC(=S)NC(=O)/C=C/c3ccco3)n2)cc1
[2]
  AC50: 5.62 µM [falling, single point]
[1]
  AC50: 5.62 µM [falling, single point]

## COc1ccc(CCNC(=O)c2ccc3c(c2)ncn3-c2ccc(C(C)C)cc2)cc1OC
[2]
  AC50: 12.6 µM [falling, partial curve, poor fit]
[1]
  AC50: 22.4 µM [falling, single point]

## CCN(CC)N=Nc1[nH]nc2nc(C)cc(C)c12
[2]
  AC50: 10 µM [falling, partial curve, poor fit]

## CC(=O)Nc1ccccc1N(CC(O)Cn1c2ccccc2c2ccccc21)S(=O)(=O)c1ccc(C)cc1 (stereo not given)
[2]
  AC50: 22.4 µM [rising, single point]
[1]
  AC50: 25.1 µM [rising, single point]

## CNc1ccc(Br)cc(C(=O)/C=C/c2cccc(OC)c2OC)c1=O
[2]
  AC50: 28.2 µM [rising, single point]
[1]
  AC50: 35.5 µM [rising, single point]

## O=C(Nc1ccc2snnc2c1)N1CCN(c2ccccc2)CC1
[2]
  AC50: 14.1 µM [rising, single point]
[1]
  AC50: 20 µM [rising, single point]

## COc1ccc(/C(O)=C/Sc2nnc(Cc3ccccc3)o2)cc1
[1]
  AC50: 12.6 µM [rising, single point]

## CCc1ccc(N(CC)c2ncnc3nc[nH]c23)cc1
[1]
  AC50: 14.1 µM [rising, single point]

## COC(=O)c1sc2nc(SCc3cccc(Cl)c3)n(N)c(=O)c2c1C
[1]
  AC50: 3.16 µM [falling, full curve, poor fit]

## COc1cc(C2NC(=O)C(C#N)=C(Nc3cccc(C)c3)S2)ccc1O (stereo not given)
[1]
  AC50: 2.82 µM [falling, partial curve]

## CCC(=O)Nc1ccccc1C(=O)N1CCN(Cc2ccccc2)CC1
[1]
  AC50: 0.708 µM [falling, full curve, poor fit]

## CS(=O)(=O)Nc1cccc(-c2nc(NCc3cccs3)c3ccccc3n2)c1
[2]
  AC50: 35.5 µM [falling, single point]
[1]
  AC50: 35.5 µM [falling, single point]

## COC(=O)c1sc(N)c(C(=O)OC)c1COC(=O)CCNS(=O)(=O)c1ccc(C)cc1
[2]
  AC50: 15.8 µM [rising, single point]
[1]
  AC50: 14.1 µM [rising, single point]

## Cc1cc(C(=O)CSc2nnc(-c3ccc4c(c3)OCO4)o2)c(C)n1-c1ccc(F)cc1
[2]
  AC50: 0.0224 µM [falling, full curve, poor fit]
[1]
  AC50: 0.282 µM [falling, partial curve]

## CC(C)N(c1ccccc1)c1ccc(NC(=O)CCl)cc1
[2]
  AC50: 0.00447 µM [falling, full curve, poor fit]
[1]
  AC50: 35.5 µM [falling, single point]

## CNc1ncnc2ccc(-c3cccc(OC)c3)cc12
[2]
  AC50: 11.2 µM [falling, partial curve]
[1]
  AC50: 14.1 µM [falling, partial curve]

## CCN(CC)C(=O)CSc1ncnc2c1cnn2-c1ccccc1
[1]
  AC50: 7.94 µM [rising, partial curve]

## Cc1nc2ccn(Cc3cccs3)c(=O)c2cc1C(=O)N1CCN(c2ccc(F)cc2)CC1
[2]
  AC50: 14.1 µM [falling, partial curve, poor fit]
[1]
  AC50: 22.4 µM [falling, partial curve, poor fit]

## CCN(CC(=O)NC(C)C)C(=O)C(CCSC)NC(=O)c1ccccc1OC (stereo not given)
[2]
  AC50: 0.0891 µM [rising, full curve, poor fit]

## CC1(C)CC(=O)/C(=C\c2cccc([N+](=O)[O-])c2)C(C)(C)N1
[1]
  AC50: 15.8 µM [rising, single point]

## CCCSc1ncccc1C(=O)O
[2]
  AC50: 0.0447 µM [rising, full curve, poor fit]

## Cc1cccc(OCC(=O)Nc2cc(C)c(C)cc2O)c1
[1]
  AC50: 6.31 µM [rising, single point]

## CCCN(CCC)S(=O)(=O)c1ccc(C(=O)NNc2nc(-c3ccccc3)c3cc(Br)ccc3n2)cc1
[1]
  AC50: 11.2 µM [rising, partial curve, poor fit]

## CC(=O)Nc1nc2ccccc2[nH]1
[2]
  AC50: 0.355 µM [rising, full curve, poor fit]
[1]
  AC50: 1.12 µM [rising, partial curve]

## CCCCCCCCOC(=O)c1nc(Cl)c(Cl)c(N)c1Cl
[2]
  AC50: 10 µM [rising, partial curve]
[1]
  AC50: 8.91 µM [rising, partial curve, poor fit]

## N#CC(c1ccc(F)cc1)c1ccc(C(=O)c2ccccc2)cc1 (stereo not given)
[2]
  AC50: 8.91 µM [rising, partial curve, poor fit]
[1]
  AC50: 17.8 µM [rising, single point]

## CCOC(=O)c1c(/N=C/N(C)C)sc(/C=N/Nc2ccccc2)c1-c1ccc(Cl)cc1
[2]
  AC50: 17.8 µM [rising, partial curve, poor fit]
